Source: US20140178390A1
These are yes or no findings as the source states them, for the method shown. Some binding calls cover weakened binding; strength is not graded here.

By UniProt entry, the sequences of proteins in these tests, tags left out. Where a name states a change or a piece, a line headed by the entry shows the natural chain unless it says otherwise.
UniProt P25106: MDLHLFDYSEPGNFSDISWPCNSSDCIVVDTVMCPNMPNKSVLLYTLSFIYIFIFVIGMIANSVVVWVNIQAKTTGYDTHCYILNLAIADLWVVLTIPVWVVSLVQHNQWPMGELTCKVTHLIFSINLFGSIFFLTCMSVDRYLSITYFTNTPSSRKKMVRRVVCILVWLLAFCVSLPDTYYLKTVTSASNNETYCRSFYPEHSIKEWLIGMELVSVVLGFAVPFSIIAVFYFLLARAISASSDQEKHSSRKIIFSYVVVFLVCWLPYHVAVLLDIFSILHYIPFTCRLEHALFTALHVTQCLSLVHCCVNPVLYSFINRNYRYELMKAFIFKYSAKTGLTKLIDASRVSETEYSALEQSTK

Target: Human CXCR7 (human) (UniProt P25106)
Test: [125I]-CXCL12 displacement by cold chemokine (10^-7 M) on head and neck cancer cells

B1: CXCL11 (ligand, UniProt O14625 22-94, looked up)
chain: FPMFKRGRCLCIGPGVKAVKVADIEKASIMYPSNNCDKIEVIITLKENKGQRCLNPKSKQARLIIKKVERKNF
- binding: binds
